In patent US20220251143A1, “NON-HYDROLYZABLE NON-CLEAVABLE, STABLE LINKERS FOR PRECISION THERAPEUTICS AND USES THEREOF” (THE TRUSTEES OF COLUMBIA UNIVERSITY IN THE CITY OF NEW YORK, priority 2019, published 2022):
At least one structure is not confirmed: it was looked up by name or label, or the drawing left a doubt.

Columns and labels:
Type in all cases: cell-based
Conditions in all cases: within 72 hours, 1 or 3 nanomolar romidepsin or 1 micromolar entinostat
[1] = tested on: SSTR2 expression in NEC3 (H727) cells; test: SSTR2 expression by quantitative PCR, NEC3
Description: (§1) Three neuroendocrine cell lines, NEC1 (NCI—H82), NEC2 (Kelly), and NEC3 (H727), were incubated in media containing 1 or 3 nanomolar romidepsin (EA1) or 1 micromolar entinostat (EA2) or without drug at 37° C. under 5% CO2 for 72-96 hours after which time cellular RNA was harvested and expression of the SSTR determined.
(§2) Somatostatin receptor expression was measured by quantitative PCR using primers for SSTR2.

[2] = tested on: SSTR2 expression in NEC1 (NCI-H82) cells; test: SSTR2 expression by quantitative PCR, NEC1
Description: as §1, §2

[3] = tested on: SSTR2 expression in NEC2 (Kelly) cells; test: SSTR2 expression by quantitative PCR, NEC2
Description: as §1, §2

Measured: induction of the somatostatin receptor (SSTR2 expression)

C/C=C1\NC(=O)[C@H]2CSSCC/C=C/[C@H](CC(=O)N[C@H](C(C)C)C(=O)N2)OC(=O)[C@H](C(C)C)NC1=O [romidepsin]
Induction of the somatostatin receptor: [1] | [2] | [3]
